# Measurements as given in PubChem BioAssay (NCATS).
# Inconclusive means that the source gave no clear call. Such entries were picked first, then a sample of the others. Potencies of inconclusive entries are doubtful fits and often do not repeat. Calls of active or inactive are those of the source. Calls follow the shape of the dose curve; as a rule, active = well fitted cell-killing curve with a large enough effect; inconclusive = small, poorly fitted or top-dose-only effect, or effect the other way; inactive = no such curve, though single readings can be large or run the other way.
# Columns and labels:
# [1] = Quantitative High-Throughput drug screen in 47 multiple myeloma cell lines against the NCATS MIPE library collection: LP1_DSMZ cell viability assay (AID 1918982); details: LP1 myeloma viability, CellTiter-Glo ATP luminescence, 48 h; viability (% of control): at 45.8 µM (top of the series); also: nearly all actives have a fitted effect of over 35% in size
# Procedure, shortened: (§1)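 500 cells/well per myeloma line exposed to pinned MIPE 4.0 compounds for 48 h at 37 °C, 5% CO2. Viability read as ATP by CellTiter-Glo luminescence, normalised to DMSO-only (100%) and media-only (0%) wells.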
# [2] = Quantitative High-Throughput drug screen in 47 multiple myeloma cell lines against the NCATS MIPE library collection: KMS28PE_JCRB cell viability assay (AID 1918983); also: nearly all actives have a fitted effect of over 35% in size
# Procedure, shortened: as §1
# [3] = Quantitative High-Throughput drug screen in 47 multiple myeloma cell lines against the NCATS MIPE library collection: L363_DSMZ cell viability assay (AID 1918984); details: L363 myeloma viability, CellTiter-Glo ATP luminescence, 48 h; viability (% of control): at 45.8 µM (top of the series); also: nearly all actives have a fitted effect of over 40% in size
# Procedure, shortened: as §1
# [4] = Quantitative High-Throughput drug screen in 47 multiple myeloma cell lines against the NCATS MIPE library collection: KMS34_JCRB cell viability assay (AID 1918985); details: KMS34 myeloma viability, CellTiter-Glo ATP luminescence, 48 h; viability, percent of control: at 45.8 µM (top of the series); also: nearly all actives have a fitted effect of over 40% in size
# Procedure, shortened: as §1
# [5] = Quantitative High-Throughput drug screen in 47 multiple myeloma cell lines against the NCATS MIPE library collection: OCIMY7_PLB cell viability assay (AID 1918987); details: OCI-MY7 myeloma viability, CellTiter-Glo ATP, 48 h; viability (% of DMSO): at 45.8 µM (top of the series); also: nearly all actives have a fitted effect of over 65% in size
# Procedure, shortened: as §1
# [6] = Quantitative High-Throughput drug screen in 47 multiple myeloma cell lines against the NCATS MIPE library collection: OCIMY5_PLB cell viability assay (AID 1918988); details: OCI-MY5 myeloma viability, ATP luminescence, 48 h; viability, % of control: at 45.8 µM (top of the series); also: nearly all actives have a fitted effect of over 65% in size;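 as to viability, % of control: 100% = DMSO-treated wells and 0% = wells with media alone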
# Procedure, shortened: as §1
# [7] = Quantitative High-Throughput drug screen in 47 multiple myeloma cell lines against the NCATS MIPE library collection: OPM1_PLB cell viability assay (AID 1918989); details: CellTiter-Glo, 48 h; viability (% of control): at 45.8 µM (top of the series); also: nearly all actives have a fitted effect of over 40% in size
# Procedure, shortened: as §1
# [8] = Quantitative High-Throughput drug screen in 47 multiple myeloma cell lines against the NCATS MIPE library collection: SKMM1_PLB cell viability assay (AID 1919863); details: SKMM1 myeloma viability, CellTiter-Glo ATP, 48 h; viability: stronger effect = lower value; also: nearly all actives have a fitted effect of over 35% in size
# Procedure, shortened: as §1
# [9] = Quantitative High-Throughput drug screen in 47 multiple myeloma cell lines against the NCATS MIPE library collection: MM1R_ATCC cell viability assay (AID 1918981); also: nearly all actives have a fitted effect of over 35% in size
# Procedure, shortened: as §1
# [10] = Quantitative High-Throughput drug screen in 47 multiple myeloma cell lines against the NCATS MIPE library collection: U266_ATCC cell viability assay (AID 1919864); also: nearly all actives have a fitted effect of over 35% in size
# Procedure, shortened: as §1
# Potency is read from the fitted curve at half-maximal effect.
Structure (SMILES),Potency [1],Potency [2],Potency [3],Potency [4],Potency [5],Potency [6],Potency [7],Potency [8],Potency [9],Potency [10],viability [8]
COC(=O)Nc1nc2ccc(Sc3ccccc3)cc2[nH]1,active: 2.35 µM,,,,,,,,,,
C[C@](N)(Cc1ccc(O)c(O)c1)C(=O)O,"inconclusive: 20.9 µM [cytotoxic, partial curve]","inconclusive: 37.2 µM [cytotoxic, single point]",inactive,"inconclusive: 14.8 µM [cytotoxic, partial curve]","inconclusive: 20.9 µM [cytotoxic, partial curve, poor fit]","inconclusive: 18.7 µM [cytotoxic, partial curve, poor fit]","inconclusive: 37.2 µM [cytotoxic, single point]","inconclusive: 7.43 µM [cytotoxic, full curve]",,,
CC[C@@H](C)[C@H](NC(=O)[C@H](CC1CCCCC1)NC(=O)c1ccno1)C(=O)N1CCC2(CCc3ccccc32)CC1,,"inconclusive: 10.5 µM [cytotoxic, partial curve]","inconclusive: 0.0017 µM [cytotoxic, full curve, poor fit]",active: 7.43 µM,"inconclusive: 14.8 µM [cytotoxic, partial curve, poor fit]",,inactive,"inconclusive: 13.2 µM [cytotoxic, partial curve]",active: 13.2 µM,"inconclusive: 11.8 µM [cytotoxic, partial curve, poor fit]",
Cn1nnc2c(C(N)=O)ncn2c1=O,,"inconclusive: 20.9 µM [rising, single point]","inconclusive: 0.296 µM [cytotoxic, full curve, poor fit]","inconclusive: 0.0296 µM [cytotoxic, full curve, poor fit]","inconclusive: 0.0105 µM [rising, full curve, poor fit]","inconclusive: 11.8 µM [rising, single point]",,"inconclusive: 6.62 µM [rising, partial curve, poor fit]",inactive,"inconclusive: 0.0418 µM [rising, full curve, poor fit]",
COc1cccc(-c2ccc(NC(=O)C3=C(C(=O)O)CCC3)c(F)c2)c1,"inconclusive: 13.2 µM [cytotoxic, partial curve, poor fit]","inconclusive: 29.6 µM [cytotoxic, single point]",inactive,"inconclusive: 16.6 µM [cytotoxic, partial curve, poor fit]","inconclusive: 0.418 µM [cytotoxic, full curve, poor fit]","inconclusive: 10.5 µM [cytotoxic, partial curve, poor fit]",,,,,
CC(=O)Nc1ccc([C@H](C)C(=O)Nc2ncc(C(C)C)s2)cc1,,active: 7.43 µM,"inconclusive: 0.332 µM [cytotoxic, full curve]",active: 3.72 µM,"inconclusive: 0.935 µM [cytotoxic, full curve, poor fit]",,,,active: 0.743 µM,active: 4.69 µM,
Oc1ccc(OCc2ccccc2)cc1,,,inactive,,"inconclusive: 6.62 µM [cytotoxic, partial curve, poor fit]","inconclusive: 13.2 µM [cytotoxic, partial curve, poor fit]",,active: 7.43 µM,inactive,inactive,
O=C(O)c1cccnc1Nc1cccc(C(F)(F)F)c1,,,inactive,inactive,inactive,"inconclusive: 33.2 µM [cytotoxic, single point]",,,inactive,"inconclusive: 0.209 µM [rising, full curve]",inactive: 127%
COc1ccc(CC2=NN3C([C@@H](CCc4ccccc4)[C@@H](C)O)=NC(C)C3C(=O)N2)cc1OC (some centres undefined),,,"inconclusive: 2.96 µM [cytotoxic, full curve, poor fit]",,,inactive,,,"inconclusive: 0.0023 µM [cytotoxic, full curve, poor fit]",,inactive: 138%
CC1(C)Cc2c(sc(NC(=S)NC(=O)c3ccccc3)c2C(=O)O)CO1,inactive,inactive,"inconclusive: 9.35 µM [cytotoxic, partial curve, poor fit]",inactive,"inconclusive: 23.5 µM [cytotoxic, partial curve, poor fit]","inconclusive: 0.0017 µM [cytotoxic, full curve, poor fit]",inactive,"inconclusive: 26.4 µM [cytotoxic, single point]",,,
CS(=O)(=O)CCNCc1ccc(-c2ccc3ncnc(Nc4ccc(OCc5cccc(F)c5)c(Cl)c4)c3c2)o1,,active: 26.4 µM,active: 9.35 µM,,active: 0.0833 µM,,,,active: 18.7 µM,,
CC(C)Cc1ccc(C(C)C(=O)O)cc1 (centres undefined),,inactive,inactive,,inactive,inactive,,inconclusive: 0.0007 µM,inactive,"inconclusive: 2.88 µM [rising, partial curve, poor fit]",
NC(=O)Cc1cccc(C(=O)c2ccccc2)c1N,,,inactive,"inconclusive: 1.66 µM [cytotoxic, partial curve, poor fit]","inconclusive: 0.0418 µM [rising, full curve, poor fit]",active: 4.69 µM,inconclusive: 0.001 µM [cytotoxic],,inactive,"inconclusive: 14.8 µM [cytotoxic, partial curve, poor fit]",inactive: 121%
NC(CO)(CO)CCc1ccc(Sc2cccc(OCc3ccccc3)c2)cc1Cl,active: 20.9 µM,"inconclusive: 33.2 µM [cytotoxic, single point]",active: 10.5 µM,"inconclusive: 33.2 µM [cytotoxic, single point]",active: 11.8 µM,active: 20.9 µM,active: 6.62 µM,,,"inconclusive: 29.6 µM [cytotoxic, single point]",
Cc1ccc(C)c(OCCCC(C)(C)C(=O)O)c1,,inactive,"inconclusive: 26.4 µM [cytotoxic, partial curve, poor fit]",inactive,,"inconclusive: 2.96 µM [rising, partial curve, poor fit]",,,inconclusive: 0.001 µM,"inconclusive: 37.2 µM [cytotoxic, single point]",inactive: 118%
Nc1ccccc1NC(=O)c1ccc(CNC(=O)OCc2cccnc2)cc1,,active: 2.35 µM,active: 0.418 µM,,,active: 1.32 µM,,,active: 0.833 µM,,
CC(C)(C)OC(=O)CN(Cc1ccc(Cl)cc1)Cc1ccc([N+](=O)[O-])s1,,,"inconclusive: 8.33 µM [cytotoxic, single point]","inconclusive: 23.5 µM [cytotoxic, single point]","inconclusive: 4.18 µM [cytotoxic, full curve, poor fit]",active: 18.7 µM,"inconclusive: 14.8 µM [cytotoxic, partial curve, poor fit]","inconclusive: 66.2 µM [cytotoxic, partial curve, poor fit]",inactive,"inconclusive: 29.6 µM [cytotoxic, single point]",
NS(=O)(=O)c1cc(C(=O)O)c(NCc2ccco2)cc1Cl,,,inactive,inactive,"inconclusive: 18.7 µM [cytotoxic, partial curve, poor fit]",inconclusive: 0.001 µM [cytotoxic],,"inconclusive: 18.7 µM [cytotoxic, partial curve, poor fit]",inactive,"inconclusive: 0.0166 µM [rising, full curve, poor fit]",
CNC1[C@H](O)C(O[C@@H]2C(O)C(O[C@H]3O[C@H]([C@@H](C)NC)CC[C@H]3N)[C@@H](N)C[C@H]2N)OC[C@]1(C)O (some centres undefined),inactive,"inconclusive: 0.0105 µM [cytotoxic, full curve, poor fit]","inconclusive: 0.0662 µM [cytotoxic, full curve, poor fit]",,inactive,inactive,,,,,inactive: 103%
CO[C@H]1C(=O)[C@]2(C)[C@@H](OC)C[C@H]3OC[C@@]3(OC(C)=O)[C@H]2[C@H](OC(=O)c2ccccc2)[C@]2(O)C[C@H](OC(=O)[C@H](O)[C@@H](NC(=O)OC(C)(C)C)c3ccccc3)C(C)=C1C2(C)C,inactive,"inconclusive: 0.003 µM [rising, full curve, poor fit]","inconclusive: 1.48 µM [rising, full curve, poor fit]",inactive,inactive,inactive,,,,"inconclusive: 0.0021 µM [rising, full curve]",inactive: 65.2%

# As entered above.
# CC(=O)Nc1ccc([C@H](C)C(=O)Nc2ncc(C(C)C)s2)cc1 – Potency [3]: inconclusive: 0.332 µM [cytotoxic, full curve]
# NC(=O)Cc1cccc(C(=O)c2ccccc2)c1N – viability [8]: inactive: 121%
